Experimental data reported in publication PMC529456.
These are yes or no findings as the source states them, for the method shown. Binding seen in cells or lysates may run through a third protein. Some binding calls cover weakened binding; strength is not graded here. Blank lines part the entries; values can stand above or below the substance they belong to.

Chains of the proteins cited; added tags and fusions are not shown.
UniProt P35568: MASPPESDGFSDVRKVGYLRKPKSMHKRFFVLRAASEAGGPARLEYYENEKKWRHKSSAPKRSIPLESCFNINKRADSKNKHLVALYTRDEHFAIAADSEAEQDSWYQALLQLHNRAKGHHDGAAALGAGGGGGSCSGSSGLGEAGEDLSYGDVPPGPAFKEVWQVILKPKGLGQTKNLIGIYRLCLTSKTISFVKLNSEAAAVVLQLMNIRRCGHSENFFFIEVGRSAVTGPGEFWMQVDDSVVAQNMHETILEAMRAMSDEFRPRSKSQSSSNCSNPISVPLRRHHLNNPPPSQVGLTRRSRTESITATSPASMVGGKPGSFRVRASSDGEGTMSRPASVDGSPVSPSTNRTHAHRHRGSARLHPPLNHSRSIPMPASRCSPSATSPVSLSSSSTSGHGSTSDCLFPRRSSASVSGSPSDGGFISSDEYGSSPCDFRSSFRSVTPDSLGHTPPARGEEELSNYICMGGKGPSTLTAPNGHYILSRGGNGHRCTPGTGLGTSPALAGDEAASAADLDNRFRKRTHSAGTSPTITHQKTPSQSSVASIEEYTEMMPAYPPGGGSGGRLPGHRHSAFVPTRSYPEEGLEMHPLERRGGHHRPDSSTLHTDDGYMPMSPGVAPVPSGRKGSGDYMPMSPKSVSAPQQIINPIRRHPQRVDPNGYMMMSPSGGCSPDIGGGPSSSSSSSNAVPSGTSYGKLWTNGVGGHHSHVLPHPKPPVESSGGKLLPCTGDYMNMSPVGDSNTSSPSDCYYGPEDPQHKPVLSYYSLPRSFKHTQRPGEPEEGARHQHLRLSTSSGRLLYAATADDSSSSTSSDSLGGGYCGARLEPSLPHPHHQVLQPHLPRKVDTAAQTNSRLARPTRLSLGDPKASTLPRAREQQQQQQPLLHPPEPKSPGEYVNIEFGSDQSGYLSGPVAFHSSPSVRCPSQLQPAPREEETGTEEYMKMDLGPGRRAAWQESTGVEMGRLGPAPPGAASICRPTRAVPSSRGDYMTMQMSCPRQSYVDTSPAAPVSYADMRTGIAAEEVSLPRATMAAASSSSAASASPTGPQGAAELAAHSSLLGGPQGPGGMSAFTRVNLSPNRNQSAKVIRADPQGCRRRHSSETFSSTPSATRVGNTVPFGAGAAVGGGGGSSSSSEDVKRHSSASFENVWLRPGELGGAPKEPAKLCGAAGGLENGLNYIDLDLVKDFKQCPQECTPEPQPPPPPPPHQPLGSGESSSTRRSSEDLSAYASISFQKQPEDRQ
UniProt P35569: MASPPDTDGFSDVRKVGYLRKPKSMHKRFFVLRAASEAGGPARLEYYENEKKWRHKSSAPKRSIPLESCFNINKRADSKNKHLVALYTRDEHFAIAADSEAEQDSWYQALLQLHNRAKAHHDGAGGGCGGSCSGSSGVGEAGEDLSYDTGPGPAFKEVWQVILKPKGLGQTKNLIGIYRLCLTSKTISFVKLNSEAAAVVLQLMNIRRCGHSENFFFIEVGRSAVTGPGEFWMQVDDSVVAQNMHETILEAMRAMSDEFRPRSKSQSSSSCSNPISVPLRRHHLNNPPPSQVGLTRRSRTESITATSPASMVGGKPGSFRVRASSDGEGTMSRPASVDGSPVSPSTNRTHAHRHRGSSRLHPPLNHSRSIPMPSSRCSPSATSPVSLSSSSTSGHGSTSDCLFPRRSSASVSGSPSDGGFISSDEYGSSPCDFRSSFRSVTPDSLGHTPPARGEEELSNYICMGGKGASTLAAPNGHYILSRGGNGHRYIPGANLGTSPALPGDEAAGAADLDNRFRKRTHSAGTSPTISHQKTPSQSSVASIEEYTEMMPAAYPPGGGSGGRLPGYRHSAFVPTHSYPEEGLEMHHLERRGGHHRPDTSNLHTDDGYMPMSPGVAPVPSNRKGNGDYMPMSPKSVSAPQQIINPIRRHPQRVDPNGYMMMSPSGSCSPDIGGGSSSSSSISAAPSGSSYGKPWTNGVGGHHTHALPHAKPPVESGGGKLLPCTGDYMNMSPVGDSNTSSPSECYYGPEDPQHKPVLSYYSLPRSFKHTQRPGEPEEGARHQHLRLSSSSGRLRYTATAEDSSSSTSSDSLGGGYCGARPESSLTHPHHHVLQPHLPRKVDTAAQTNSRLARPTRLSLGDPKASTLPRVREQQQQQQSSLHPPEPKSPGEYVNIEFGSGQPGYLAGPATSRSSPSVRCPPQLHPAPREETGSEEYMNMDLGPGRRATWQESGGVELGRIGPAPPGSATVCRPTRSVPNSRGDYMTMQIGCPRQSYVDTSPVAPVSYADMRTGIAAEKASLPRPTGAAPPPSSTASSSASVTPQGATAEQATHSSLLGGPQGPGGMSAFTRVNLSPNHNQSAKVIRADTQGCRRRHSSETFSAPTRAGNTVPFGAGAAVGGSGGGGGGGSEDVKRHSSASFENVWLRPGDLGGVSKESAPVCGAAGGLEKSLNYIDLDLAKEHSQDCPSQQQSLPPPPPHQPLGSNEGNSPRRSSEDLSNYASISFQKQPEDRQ
UniProt Q92769: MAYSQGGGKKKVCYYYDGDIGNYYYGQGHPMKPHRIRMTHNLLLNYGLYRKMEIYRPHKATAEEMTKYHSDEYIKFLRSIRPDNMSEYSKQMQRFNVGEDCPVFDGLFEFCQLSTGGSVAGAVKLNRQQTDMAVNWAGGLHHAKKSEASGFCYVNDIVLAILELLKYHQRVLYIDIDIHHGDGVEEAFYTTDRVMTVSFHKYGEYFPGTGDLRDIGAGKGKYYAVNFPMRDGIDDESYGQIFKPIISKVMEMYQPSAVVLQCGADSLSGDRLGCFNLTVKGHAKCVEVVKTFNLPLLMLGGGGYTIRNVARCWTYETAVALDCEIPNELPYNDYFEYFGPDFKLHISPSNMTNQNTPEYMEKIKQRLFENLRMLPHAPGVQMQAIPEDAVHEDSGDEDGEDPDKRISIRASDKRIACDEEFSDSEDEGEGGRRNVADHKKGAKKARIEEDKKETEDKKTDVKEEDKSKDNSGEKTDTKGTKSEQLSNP
UniProt P70288: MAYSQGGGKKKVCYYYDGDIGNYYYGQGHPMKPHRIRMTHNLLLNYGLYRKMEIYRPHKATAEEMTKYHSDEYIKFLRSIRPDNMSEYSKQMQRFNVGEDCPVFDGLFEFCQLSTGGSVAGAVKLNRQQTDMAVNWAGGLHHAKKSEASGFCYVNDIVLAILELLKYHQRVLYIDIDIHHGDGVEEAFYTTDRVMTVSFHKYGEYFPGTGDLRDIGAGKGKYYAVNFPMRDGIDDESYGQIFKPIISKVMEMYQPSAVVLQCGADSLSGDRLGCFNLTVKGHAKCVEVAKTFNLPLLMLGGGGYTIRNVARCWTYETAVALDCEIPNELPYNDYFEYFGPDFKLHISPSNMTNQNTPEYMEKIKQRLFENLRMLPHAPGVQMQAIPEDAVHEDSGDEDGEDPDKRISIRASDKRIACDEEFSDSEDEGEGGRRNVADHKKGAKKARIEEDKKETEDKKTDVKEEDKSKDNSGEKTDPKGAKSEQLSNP
UniProt Q13547: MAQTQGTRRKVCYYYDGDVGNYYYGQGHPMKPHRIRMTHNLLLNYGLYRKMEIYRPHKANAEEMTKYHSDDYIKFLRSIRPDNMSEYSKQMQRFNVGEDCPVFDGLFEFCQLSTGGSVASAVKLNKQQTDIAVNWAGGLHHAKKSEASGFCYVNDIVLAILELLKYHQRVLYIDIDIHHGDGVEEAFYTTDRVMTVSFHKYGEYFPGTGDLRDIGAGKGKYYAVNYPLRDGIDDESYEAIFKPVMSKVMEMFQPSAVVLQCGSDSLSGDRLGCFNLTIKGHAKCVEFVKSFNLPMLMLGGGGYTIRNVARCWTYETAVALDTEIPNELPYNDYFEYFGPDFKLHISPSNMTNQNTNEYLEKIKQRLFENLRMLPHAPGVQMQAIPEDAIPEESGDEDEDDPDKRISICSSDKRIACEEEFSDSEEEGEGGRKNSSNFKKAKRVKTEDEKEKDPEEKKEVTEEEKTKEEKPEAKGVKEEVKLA

What was measured:
[1] = target: IRS-1, endogenous in MCF-7 cells (human (endogenous in MCF-7)) (UniProt P35568); experiment: co-IP; endogenous proteins, MCF-7 lysates; IRS-1 immunoprecipitated, blotted for HDAC2; cells treated with IGF-1 (10 ng/ml), insulin (100 nM), PMA (10 ng/ml), DesCoA (10 nM), TSA (150 ng/ml) in combinations; washes with 500 mM NaCl
[2] = target: IRS-1, endogenous in mouse liver (mouse (endogenous in liver)) (UniProt P35569); experiment: co-IP; liver lysates of ob/ob mice and of balb/cJJ mice; IRS-1 immunoprecipitated, blotted for HDAC2
[3] = target: IRS-1, endogenous in mouse liver (mouse (endogenous in liver)) (UniProt P35569); experiment: condition: only liver of C57/bl6 genotype control mice; co-IP; liver lysates of C57/bl6 genotype control mice; IRS-1 immunoprecipitated, blotted for HDAC2
[4] = target: IRS-1, endogenous in mouse liver (mouse (endogenous in liver)) (UniProt P35569); experiment: co-IP; liver lysates of PTP1B knockout mice; IRS-1 immunoprecipitated, blotted for HDAC2
[5] = target: IRS-1, endogenous in MCF-7 cells (human (endogenous in MCF-7)) (UniProt P35568); experiment: co-IP; unpublished observation; endogenous proteins from MCF-7 cells; no significant change by prolonged insulin stimulation or PMA

binding [1]: binds
Substance: HDAC2, endogenous in MCF-7 cells (from UniProt Q92769 1-488)

binding [2]: binds | binding [3]: no binding
Substance: HDAC2, endogenous in mouse liver (from UniProt P70288 1-488)
binding [4]: no binding (condition: liver of PTP1B knockout mice)

binding [5]: binds
Substance: HDAC1, endogenous in MCF-7 cells (from UniProt Q13547 1-482)
